Values quoted from earlier work as cited in US20220193070A1, “METHODS FOR TREATING ABSENCE SEIZURES” (XENON PHARMACEUTICALS INC., priority 2020, published 2022).
Some entries share one result that the patent states for a list of compounds.

Test system: absence seizures
Conditions: 446 subjects with CAE; pooled over the trial of the three drugs; cited from earlier work

| SMILES | subjects with inadequate response to treatment |
| --- | --- |
| Nc1nnc(-c2cccc(Cl)c2Cl)c(N)n1 [lamotrigine] | > 40% |
| CCC1(C)CC(=O)NC1=O (stereo not drawn) [ethosuximide] | > 40% |
| CCCC(CCC)C(=O)O [valproic acid] | > 40% |
